# In article PMC11668892:
# By UniProt entry, the sequences of proteins in these tests, tags left out.
# UniProt Q15910: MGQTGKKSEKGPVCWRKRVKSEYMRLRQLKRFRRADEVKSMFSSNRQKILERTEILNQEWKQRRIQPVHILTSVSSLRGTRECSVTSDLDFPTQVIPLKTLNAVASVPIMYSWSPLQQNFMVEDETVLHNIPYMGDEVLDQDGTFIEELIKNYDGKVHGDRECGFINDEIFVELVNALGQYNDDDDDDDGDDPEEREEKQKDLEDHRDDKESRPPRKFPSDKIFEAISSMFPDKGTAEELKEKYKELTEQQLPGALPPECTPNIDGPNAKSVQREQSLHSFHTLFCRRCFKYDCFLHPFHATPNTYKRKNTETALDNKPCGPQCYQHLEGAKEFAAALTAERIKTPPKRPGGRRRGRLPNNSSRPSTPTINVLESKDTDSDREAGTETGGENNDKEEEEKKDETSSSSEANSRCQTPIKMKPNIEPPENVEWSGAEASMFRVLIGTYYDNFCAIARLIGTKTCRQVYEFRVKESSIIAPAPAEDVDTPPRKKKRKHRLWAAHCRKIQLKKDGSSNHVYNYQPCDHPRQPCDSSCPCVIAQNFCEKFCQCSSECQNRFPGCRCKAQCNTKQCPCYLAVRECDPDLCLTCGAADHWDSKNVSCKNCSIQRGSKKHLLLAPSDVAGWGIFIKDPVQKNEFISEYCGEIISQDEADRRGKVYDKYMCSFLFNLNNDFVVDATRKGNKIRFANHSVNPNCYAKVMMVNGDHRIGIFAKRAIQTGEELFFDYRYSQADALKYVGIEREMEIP
# UniProt Q9NRC8: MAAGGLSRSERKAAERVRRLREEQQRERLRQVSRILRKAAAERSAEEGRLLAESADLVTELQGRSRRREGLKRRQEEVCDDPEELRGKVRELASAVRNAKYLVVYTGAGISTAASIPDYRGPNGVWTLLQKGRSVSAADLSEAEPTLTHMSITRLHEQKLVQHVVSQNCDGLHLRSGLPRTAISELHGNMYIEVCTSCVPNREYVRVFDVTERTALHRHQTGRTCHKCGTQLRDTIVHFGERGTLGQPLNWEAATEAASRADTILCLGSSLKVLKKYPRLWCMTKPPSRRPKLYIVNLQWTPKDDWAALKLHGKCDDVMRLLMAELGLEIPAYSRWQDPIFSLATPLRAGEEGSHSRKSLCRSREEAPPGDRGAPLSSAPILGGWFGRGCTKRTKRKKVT
# No constants are given. Whether binding was seen depends on the method and setting. Binding seen in cells or lysates may run through a third protein. Some results given as binding are weak or reduced against the parent protein; the word gives no strength.
# Biological target: enhancer of zeste homolog 2 (EZH2) (human (endogenous in UMUC3)) (UniProt Q15910)
# Assay: co-IP; UMUC3 cell lysate (IP lysis buffer), 500 ug protein pre-cleared with Protein A+G agarose; IP antibodies against SIRT7 or EZH2 overnight at 4 C; Western blot detection
substance,measurement,value
SIRT7 (from UniProt Q9NRC8 1-400),binding,binds
